The record followed here is patent US10545073B2, “Method and instrument for extracting a component from a sample” (priority 2016, dated 2020).

The nature of this data set: SPME extraction with HLB-PAN coated sampling instrument from spiked phosphate buffer, 15 septa puncture samplings, LC-MS/MS. The conditions noted are these: pH = 7.2, 1M phosphate buffer saline spiked at 30 ng/mL; 2 minute extraction, vortex agitation; over 15 septa puncture events.

`CN1C(=O)CN=C(c2ccccc2)c2cc(Cl)ccc21` [Diazepam] came in with a ng extracted of 4 ng.

Compound `COc1ccc2c3c1O[C@H]1[C@@H](O)C=C[C@H]4[C@@H](C2)N(C)CC[C@@]341` [Codeine] yielded a ng extracted of 1 ng.

With `CC(C)(C)NCC(O)c1ccc(O)c(CO)c1` (stereo not drawn) [Salbutamol], the ng extracted was found to be 0.1 ng.

As for `CNCCC(Oc1ccc(C(F)(F)F)cc1)c1ccccc1` (stereo not drawn) [Fluoxetine], the ng extracted is 10 ng.

`Fc1ccc([C@@H]2CCNC[C@H]2COc2ccc3c(c2)OCO3)cc1` [Paroxetine]: the ng extracted is reported as 7 ng.

As to `CN[C@H]1CC[C@@H](c2ccc(Cl)c(Cl)c2)c2ccccc21` [Sertraline], the ng extracted is 12 ng.
